This assay deals with Native ventricular myosin in human ventricular myocytes (human (endogenous in ventricular myocytes)) (UniProt P12883+P10916). Put plainly: exchange of labelled light chain into myocyte myosin, read by fluorescence anisotropy and lifetime imaging; 5 nM labelled LC with 2 mg/ml freshly prepared myocytes in exchange solution (15 mM KCl, 5 mM EDTA, 5 mM DTT, 10 mM KH2PO4, 5 mM ATP, 1 mM TFP, 10 mM imidazole, pH 7), 30 C, 10 min; only the binder purified. (Polarisation of emitted light reports the rotation of a fluorescent probe.)

By UniProt entry, the sequences of proteins in these tests, tags left out. Where a name states a change or a piece, a line headed by the entry shows the natural chain unless it says otherwise.
UniProt P12883: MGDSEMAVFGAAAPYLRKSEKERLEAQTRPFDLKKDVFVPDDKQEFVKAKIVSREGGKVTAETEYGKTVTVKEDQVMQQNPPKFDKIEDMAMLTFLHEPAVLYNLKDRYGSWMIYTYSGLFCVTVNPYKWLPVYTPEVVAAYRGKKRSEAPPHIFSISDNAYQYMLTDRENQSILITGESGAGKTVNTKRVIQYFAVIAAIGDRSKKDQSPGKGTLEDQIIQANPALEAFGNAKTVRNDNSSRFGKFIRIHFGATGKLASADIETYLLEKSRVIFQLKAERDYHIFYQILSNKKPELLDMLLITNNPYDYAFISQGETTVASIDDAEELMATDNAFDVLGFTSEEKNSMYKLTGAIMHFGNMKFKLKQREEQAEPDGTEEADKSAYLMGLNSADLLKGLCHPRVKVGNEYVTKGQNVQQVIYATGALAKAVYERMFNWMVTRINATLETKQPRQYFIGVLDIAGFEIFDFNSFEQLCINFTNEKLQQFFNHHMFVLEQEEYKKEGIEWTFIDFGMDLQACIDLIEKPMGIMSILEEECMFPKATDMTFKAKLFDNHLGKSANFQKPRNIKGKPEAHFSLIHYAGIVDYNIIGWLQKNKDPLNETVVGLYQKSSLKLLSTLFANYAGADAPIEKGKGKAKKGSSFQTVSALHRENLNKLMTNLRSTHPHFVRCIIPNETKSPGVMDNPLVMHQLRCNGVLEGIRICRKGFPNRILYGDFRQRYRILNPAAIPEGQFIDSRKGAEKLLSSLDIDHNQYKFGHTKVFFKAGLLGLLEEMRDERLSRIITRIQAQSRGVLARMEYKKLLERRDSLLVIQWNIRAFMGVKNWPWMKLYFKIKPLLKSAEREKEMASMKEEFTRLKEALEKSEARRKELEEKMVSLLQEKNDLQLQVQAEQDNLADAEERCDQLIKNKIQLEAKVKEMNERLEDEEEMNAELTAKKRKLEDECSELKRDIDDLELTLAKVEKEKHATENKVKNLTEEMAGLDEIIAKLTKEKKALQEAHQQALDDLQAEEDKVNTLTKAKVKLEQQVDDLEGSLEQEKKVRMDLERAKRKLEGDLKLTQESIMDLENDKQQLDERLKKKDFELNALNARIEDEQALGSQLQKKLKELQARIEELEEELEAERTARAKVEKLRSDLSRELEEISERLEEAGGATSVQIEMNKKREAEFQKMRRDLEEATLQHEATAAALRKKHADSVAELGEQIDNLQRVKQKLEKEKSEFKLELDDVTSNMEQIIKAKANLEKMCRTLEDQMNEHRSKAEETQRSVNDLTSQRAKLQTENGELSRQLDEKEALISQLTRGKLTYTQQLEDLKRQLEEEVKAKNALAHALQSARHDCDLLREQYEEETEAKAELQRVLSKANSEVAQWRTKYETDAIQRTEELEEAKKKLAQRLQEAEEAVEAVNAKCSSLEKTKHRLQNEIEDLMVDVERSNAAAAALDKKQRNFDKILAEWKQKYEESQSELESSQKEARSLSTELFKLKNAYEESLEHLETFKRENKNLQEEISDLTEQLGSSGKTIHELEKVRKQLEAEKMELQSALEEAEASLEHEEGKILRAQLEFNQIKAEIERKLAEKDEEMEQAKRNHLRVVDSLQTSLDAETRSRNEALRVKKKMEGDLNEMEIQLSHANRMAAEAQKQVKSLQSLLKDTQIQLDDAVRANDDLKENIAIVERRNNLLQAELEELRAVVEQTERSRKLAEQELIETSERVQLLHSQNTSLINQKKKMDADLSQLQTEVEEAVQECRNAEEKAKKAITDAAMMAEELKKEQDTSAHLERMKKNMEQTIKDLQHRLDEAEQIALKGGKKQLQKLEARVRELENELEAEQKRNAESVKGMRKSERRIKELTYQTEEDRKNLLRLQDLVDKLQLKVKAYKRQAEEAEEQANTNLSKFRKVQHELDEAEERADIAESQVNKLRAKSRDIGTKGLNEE
UniProt P10916: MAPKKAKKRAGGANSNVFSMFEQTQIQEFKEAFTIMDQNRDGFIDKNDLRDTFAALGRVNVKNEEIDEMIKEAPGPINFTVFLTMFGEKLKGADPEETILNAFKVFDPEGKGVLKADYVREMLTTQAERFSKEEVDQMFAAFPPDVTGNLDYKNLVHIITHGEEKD
UniProt P05976: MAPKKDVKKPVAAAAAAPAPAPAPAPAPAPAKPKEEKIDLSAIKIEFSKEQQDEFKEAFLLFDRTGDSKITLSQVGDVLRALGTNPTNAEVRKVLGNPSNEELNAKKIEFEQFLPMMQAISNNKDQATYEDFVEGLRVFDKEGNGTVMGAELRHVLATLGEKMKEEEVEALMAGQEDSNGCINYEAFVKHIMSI

No constants are given. Whether binding was seen depends on the method and setting. Some binding calls cover weakened binding; strength is not graded here.

With “Recombinant human essential light chain G174C (G174C-hLC), labelled with SeTau-647 maleimide (from UniProt P05976 1-194)”, the binding result is on record as “binds”.

For the origin of these results see PMC5645524.
